Reference: paper PMC12617251
No constants are given. Whether binding was seen depends on the method and setting.

Target: CLIPPER_(K715A) (CLIPPER domain variant lacking the isopeptide-forming lysine, residues 708-828 of B9T28_05395) (Acinetobacter silvestris ANC 4999)
Assay: SEC; EnRich SEC 650 10 x 300 column, equilibrated with PBS (for CD and proteolysis) or TBS (20 mM Tris, 100 mM NaCl, pH 8.0, for crystallization); one primary peak per polypeptide; both purified

Q: With “CLIPPER_(K715A) (CLIPPER domain variant lacking the isopeptide-forming lysine, residues 708-828 of B9T28_05395) (from UniProt A0A1Y3CHT7 708-828) (domain or fragment)” as the substance, how does the binding read?
A: Its binding is “no binding”.
